The exact form of at least one protein or probe is not confirmed. At least one verdict rests on a figure or table, not on a statement of the authors. Protein sequences can lack the tags named with them.
Molecular target: T1, recombinant (His)6-Bwc2 (Cryptococcus neoformans var. neoformans JEC21) (UniProt Q5EGQ1)
T1 sequence (looked up): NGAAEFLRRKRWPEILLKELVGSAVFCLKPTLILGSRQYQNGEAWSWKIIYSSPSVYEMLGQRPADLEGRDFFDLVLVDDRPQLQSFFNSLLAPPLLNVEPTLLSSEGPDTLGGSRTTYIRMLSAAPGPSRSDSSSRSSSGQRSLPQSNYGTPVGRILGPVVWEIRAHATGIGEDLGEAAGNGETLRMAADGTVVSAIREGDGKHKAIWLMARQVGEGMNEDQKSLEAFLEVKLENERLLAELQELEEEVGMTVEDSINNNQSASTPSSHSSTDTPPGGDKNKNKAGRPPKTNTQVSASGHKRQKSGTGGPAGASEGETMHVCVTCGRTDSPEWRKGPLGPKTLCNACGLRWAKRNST
Assay: competition with a labelled probe
Conditions: cold P1 600 and 900 ng against labelled P1, 50 ug Bwc2; 1X EMSA buffer (from 5X: 20% w/v glycerol, 5 mM MgCl2, 250 mM NaCl, 2.5 mM EDTA pH 8, 10 mM DTT, +/-12 uM ZnSO4) + 1X phosphate buffer, 20 ul; recombinant protein; residues 26-383; label: 32P (5', T4 PNK); probe letters rebuilt from the primers and the genome

**Q.** Does “GTAGTCACCAGTCATTCAGTTACTCTGTTATGACGTGACGTCGTTACTCTCGATCTTCATCTCGATCTCCACCTTGCAAGCTTTTCAGGCTTTTTACTCATCGTTCACTATATAATACGATACCACACTTGACATTTCTTCGGTATGTATAAAACGCAGTCGCGAGTACTTCCTTCTGCTTTTGCAACAAACACGTCTGCATTTGTTGCCAAGTATTTATATCAGCATTAAGTACATGAGGTTC (double strand) [P1 (UVE1 promoter)]” bind?
**A.** Result: binds

Source: publication PMC3764193
